Experimental data reported in patent US10676518B1, “A4B2 nicotinic acetylcholine receptors with reduced or increased nicotine sensitivity and transgenic mouse model for the same” (University of Puerto Rico, priority 2015, dated 2020).

Tested on: α4β2 nAChRs expressed in Xenopus laevis oocytes
Experiment: Efficacy of agonist A-85380 versus ACh for subunit stoichiometry determination
Type: cell-based, Rattus norvegicus
Conditions: α4β2 mRNA 2:3 ratio
Experimental: To determine whether the α4β2 mutations α4S469Aβ2, α4S471Dβ2, α4T536Aβ2 and α4Y576Aβ2 expressed in Xenopus laevis oocytes assemble in the α4(2):β2(3) or the α4(3):β2(2) stoichiometry, we estimated the efficacy of agonist A-85380 when compared to ACh 300 μM. […] The efficacy of A-85380 in WTα4(2):β2(3) and […] was determined by comparing the macroscopic current elicited by A-85380 100 nM and ACh 300 μM in oocytes microinjected α4β2 mRNA in 1:10 and 10:1 ratios, respectively. The efficacy of A-85380 in α4S469Aβ2, α4S471Dβ2, α4T536Aβ2 and α4Y576Aβ2 was determined by comparing the macroscopic current elicited by A-85380 100 nM and ACh 300 μM in oocytes microinjected α4β2 mRNA in 2:3 ratio. The changes in stoichiometry in these four mutants were assessed by comparing the efficacy of A-85380 in each mutant compared to WTα4(2):β2(3) and WTα4(3):β2(2).

“α4S471Dβ2: rat α4β2 nAChR, α4 subunit point mutation S471D, PKA putative phosphorylation site” was tested, and the “subunit stoichiometry indicated by efficacy of A-85380” value was “α4(2):β2(3) stoichiometry”.

In the case of “α4S469Aβ2: rat α4β2 nAChR, α4 subunit point mutation S469A, CKII putative phosphorylation site”, the “subunit stoichiometry indicated by efficacy of A-85380” value is reported as “α4(2):β2(3) stoichiometry”.
